Measured values reported in paper doi:10.1101/2025.07.01.662558 (bioRxiv, 2025).
These are yes or no findings as the source states them, for the method shown. Some entries that bind do so weakly or less than the wild type. Sequences can lack the tags named with a protein.

Columns and labels:
[1] = biological target: T1, TilSSoL340P, fused to the T18 domain of B. pertussis adenylate cyclase (S. oneidensis) (UniProt Q8EGF9); experiment: two-hybrid
T1 sequence: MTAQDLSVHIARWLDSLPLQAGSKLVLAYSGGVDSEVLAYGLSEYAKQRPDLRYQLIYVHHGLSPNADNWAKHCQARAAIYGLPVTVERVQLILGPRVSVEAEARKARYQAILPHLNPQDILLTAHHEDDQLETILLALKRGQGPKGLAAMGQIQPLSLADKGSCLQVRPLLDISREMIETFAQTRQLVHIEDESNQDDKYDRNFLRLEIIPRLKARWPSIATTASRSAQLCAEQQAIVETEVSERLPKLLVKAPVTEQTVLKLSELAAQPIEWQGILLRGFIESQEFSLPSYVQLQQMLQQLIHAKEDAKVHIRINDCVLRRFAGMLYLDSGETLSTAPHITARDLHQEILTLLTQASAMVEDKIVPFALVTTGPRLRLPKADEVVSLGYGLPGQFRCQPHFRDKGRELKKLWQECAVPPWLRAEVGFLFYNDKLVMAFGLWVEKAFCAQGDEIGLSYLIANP

[2] = biological target: T2, TilS from E. coli (TilSEc), purified, with 6-His tag (E. coli) (UniProt P52097); experiment: MST
T2 sequence (chain, RED-tris-NTA 2nd generation dye (NanoTemper) on the 6-His tag): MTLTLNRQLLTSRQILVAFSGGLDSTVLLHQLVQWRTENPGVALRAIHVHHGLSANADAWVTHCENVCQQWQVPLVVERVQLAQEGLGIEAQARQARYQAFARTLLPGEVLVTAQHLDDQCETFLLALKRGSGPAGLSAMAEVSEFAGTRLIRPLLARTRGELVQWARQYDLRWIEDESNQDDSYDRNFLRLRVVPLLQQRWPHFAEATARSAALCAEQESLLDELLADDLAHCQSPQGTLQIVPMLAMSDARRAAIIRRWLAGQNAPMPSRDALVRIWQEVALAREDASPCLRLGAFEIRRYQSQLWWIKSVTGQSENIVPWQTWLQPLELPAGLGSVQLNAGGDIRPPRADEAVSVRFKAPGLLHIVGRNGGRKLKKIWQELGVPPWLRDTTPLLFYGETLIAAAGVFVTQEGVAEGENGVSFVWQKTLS

B1: Hsp90 from S. oneidensis (Hsp90So), fused to the T25 domain of B. pertussis adenylate cyclase (protein, UniProt Q8EFF7 1-637)
chain: MSQQETHGFQTEVKQLLHLMIHSLYSNKEIFLRELVSNAADAADKLRYLALTNDALYEGDGELRVRISADKEKGTVTIEDNGVGMTRDGVIEHLGTIAKSGTAEFFKNLSGEASKDSQLIGQFGVGFYSAFIVAKKVTVRTRAAGHKANEAVLWESEGEGSFTVETITKATRGTEITLHLRDDEKEFADDWRLRSIITKYSDHISIPVEMWQEGTPERDGPDGEKIPATEGYWKAMNKATALWMRNKSEITDEEYQEFYKHISHDYTDALLWSHNRVEGKQEYTNLLYIPSKAPWDLWNRDRKHGLKLFVQRVFIMDDAEQFMPSYLRFVQGLIDSNDLPLNVSREILQDNHITKAMRTGITKRVLGMLEKLAKDDAEKYQQFWAEFGQVLKEGPAEDFANRERIAGLLRFASTHTGSAAPTVSLDDYISRMKEGQTKIYYIVADSHEAAANSPHLELLRKKGIEVLLMSERIDEWLINHLTEYKEKQLHSVTRGELELGELEDAAEKEAQEKLAEESAPLIERIKAALGASVADVKVTSRLTDTPACVVTGEGEMSTQMIKLMQAAGQPVPEVKPTFEVNPAHPLVSRLNDLQDEAAFADWSNLLLQQAQLSEKGSLADPSAFIKLMNQMLLANLK
[1]
  binding: binds

B2: Hsp90 from S. oneidensis (Hsp90So), purified, non-labeled (protein, UniProt Q8EFF7 1-637)
chain: MSQQETHGFQTEVKQLLHLMIHSLYSNKEIFLRELVSNAADAADKLRYLALTNDALYEGDGELRVRISADKEKGTVTIEDNGVGMTRDGVIEHLGTIAKSGTAEFFKNLSGEASKDSQLIGQFGVGFYSAFIVAKKVTVRTRAAGHKANEAVLWESEGEGSFTVETITKATRGTEITLHLRDDEKEFADDWRLRSIITKYSDHISIPVEMWQEGTPERDGPDGEKIPATEGYWKAMNKATALWMRNKSEITDEEYQEFYKHISHDYTDALLWSHNRVEGKQEYTNLLYIPSKAPWDLWNRDRKHGLKLFVQRVFIMDDAEQFMPSYLRFVQGLIDSNDLPLNVSREILQDNHITKAMRTGITKRVLGMLEKLAKDDAEKYQQFWAEFGQVLKEGPAEDFANRERIAGLLRFASTHTGSAAPTVSLDDYISRMKEGQTKIYYIVADSHEAAANSPHLELLRKKGIEVLLMSERIDEWLINHLTEYKEKQLHSVTRGELELGELEDAAEKEAQEKLAEESAPLIERIKAALGASVADVKVTSRLTDTPACVVTGEGEMSTQMIKLMQAAGQPVPEVKPTFEVNPAHPLVSRLNDLQDEAAFADWSNLLLQQAQLSEKGSLADPSAFIKLMNQMLLANLK
[2]
  binding: no binding (tested: Hsp90So up to 50 µM)
